{
  "source": "patent US20050014676A1",
  "about": "“Methods for delaying or inducing labor” (Boston Biomedical Research Institute, priority 2003, published 2005)",
  "key": {"ERK2": {"tested_on": "ERK2", "assay": "Western blot of myometrial ERK2 phosphorylation (p-ERK2/ERK2)", "design": "species or system rat", "conditions": "myometrium at onset of labor", "description": "(§1) Western blot analysis. The muscle strips were quick-frozen in a dry ice acetone/DTT/TCA slurry at the end of force recording experiment. Samples were homogenized in a buffer containing 20 mM MOPS, 4% SDS, 1% Triton, 10% glycerol, 10 mM DTT, 20 mM β-glycerophosphate, 5.5 μM leupeptin, 5.5 μM pepstatin A, 20 KIU aprotinin, 2 mM Na3VO4, 1 mM NaF, 20 μM 4-(2-aminorthyl) benzenesulphonyl fluoride (AEBSF) and 100 μM ZnCl2. Protein-matched samples were SDS-PAGE electrophoresed, transferred to Immobilon-P membrane (Millipore, Bedford, Mass.), and subjected to immunostaining using the appropriate antibody. Blots were visualized with a SuperSignal West Pico Peroxide Solution (Pierce, Rockford, Ill.). The images were detected with a chemiluminescence screen and quantified with a BioRad Molecular Imager and Multi-Analyst software."}, "[1]": {"tested_on": "high molecular weight caldesmon (h-CaD)", "assay": "Western blot of myometrial h-CaD phosphorylation (Ser789)", "design": "species or system rat", "conditions": "myometrium at onset of labor", "description": "as §1"}},
  "note": "At least one structure is not confirmed: it was looked up by name or label, or the drawing left a doubt.",
  "data": [
    {"smiles": "CC#C[C@]1(O)CC[C@H]2[C@@H]3CCC4=CC(=O)CCC4=C3[C@@H](c3ccc(N(C)C)cc3)C[C@@]21C", "note": "[RU486, 11 β-[4-Dimethylamino] phenyl-17β-hydroxy-17-[1-propynyl] estra-4,9-dien-3-one]", "values": [
      {"measurement": "ERK2 phosphorylation (p-ERK2/ERK2), words", "setting": "ERK2", "result": "significantly increased"},
      {"measurement": "h-CaD phosphorylation normalized to CaD protein, words", "setting": "[1]", "result": "significantly increased"}
    ]}
  ]
}
